Where “and” joins values, the source holds several entries; their conditions need not be identical. Identical values can stand only once.
Assay: Corrosion test, brass
Details: Peroxyacetic Acid, pH 6.5

CC(=O)OO [Peroxyacetic Acid]
Milli-inches per year (mpy) of corrosion, brass (4.5 wt-%): 9.798 mpy and 9.136 mpy | Milli-inches per year (mpy) of corrosion, brass (6.8 wt-%): 12.16 mpy and 11.59 mpy

From patent US8246758B2, “Neutral or alkaline medium chain peroxycarboxylic acid compositions and methods employing them” (Ecolab USA Inc., priority 2004, dated 2012)
